# Data reported in the supplement of paper PMC4604168 (melanoma cell lines).
# The list shows a part of the results. Single values are uncertain, as repeats are few or missing.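 Imaging used 1,536-well plates; nuclei positive for cleaved PARP by antibody were divided by total DNA-stained nuclei to yield the apoptosis fraction. Doses for screening kept most cells viable, and cell lines differ markedly in resting and induced cleaved-PARP levels.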
# Tested on: MZ2-MEL
# Experiment: cleaved PARP positive nuclei fraction relative to DMSO control; melanoma cells; higher = more apoptosis
# Conditions: library dose: low library concentration; 72 h
row,Structure (SMILES),cleaved PARP positive nuclei fraction [%]
1,"CC(=O)c1c(C)c2cnc(Nc3ccc(N4CCNCC4)cn3)nc2n(C2CCCC2)c1=O [palbociclib] + Nc1cccc2c1CN(C1CCC(=O)NC1=O)C2=O [lenalidomide] (first compound 0.04 µM, partner dose 1 µM)",110
2,"CC(=O)c1c(C)c2cnc(Nc3ccc(N4CCNCC4)cn3)nc2n(C2CCCC2)c1=O [palbociclib] + COc1ccc(Cl)c(Nc2nc3ccccc3nc2NS(=O)(=O)c2cccc(NC(=O)C(C)(C)N)c2)c1 [XL147] (first compound 0.04 µM, partner dose 0.8 µM)",79.5
3,"CC(=O)c1c(C)c2cnc(Nc3ccc(N4CCNCC4)cn3)nc2n(C2CCCC2)c1=O [palbociclib] + Cc1nc(Nc2ncc(C(=O)Nc3c(C)cccc3Cl)s2)cc(N2CCN(CCO)CC2)n1 [dasatanib] (first compound 0.04 µM, partner dose 0.004 µM)",24.5
4,"C=CCNC1=C2C[C@@H](C)C[C@H](OC)[C@H](O)[C@@H](C)/C=C(\C)[C@H](OC(N)=O)[C@@H](OC)/C=C\C=C(/C)C(=O)NC(=CC1=O)C2=O [Tanespimycin] + COc1ccc(Cl)c(Nc2nc3ccccc3nc2NS(=O)(=O)c2cccc(NC(=O)C(C)(C)N)c2)c1 [XL147] (first compound 0.002 µM, partner dose 0.8 µM)",41
5,"OCc1c[nH]c2ccccc12 [Indole-3-carbinol] + C#Cc1cccc(Nc2ncnc3cc(OCCOC)c(OCCOC)cc23)c1 [erlotinib] (first compound 0.8 µM, partner dose 0.8 µM)",138
6,"CC(=O)c1c(C)c2cnc(Nc3ccc(N4CCNCC4)cn3)nc2n(C2CCCC2)c1=O [palbociclib] + C[C@]1(c2nc3c(C(N)=O)cccc3[nH]2)CCCN1 [Veliparib] (first compound 0.04 µM, partner dose 1.4 µM)",108
7,"C=CCNC1=C2C[C@@H](C)C[C@H](OC)[C@H](O)[C@@H](C)/C=C(\C)[C@H](OC(N)=O)[C@@H](OC)/C=C\C=C(/C)C(=O)NC(=CC1=O)C2=O [Tanespimycin] + C#Cc1cccc(Nc2ncnc3cc(OCCOC)c(OCCOC)cc23)c1 [erlotinib] (first compound 0.002 µM, partner dose 0.8 µM)",69.2
8,"C=CCNC1=C2C[C@@H](C)C[C@H](OC)[C@H](O)[C@@H](C)/C=C(\C)[C@H](OC(N)=O)[C@@H](OC)/C=C\C=C(/C)C(=O)NC(=CC1=O)C2=O [Tanespimycin] + Clc1ccc(Nc2nnc(Cc3ccncc3)c3ccccc23)cc1 [vatalanib] (first compound 0.002 µM, partner dose 2 µM)",356
9,"COCC[n+]1c2c(n(Cc3cnccn3)c1C)C(=O)c1ccccc1C2=O + Nc1cccc2c1CN(C1CCC(=O)NC1=O)C2=O [lenalidomide] (first compound 0.0004 µM, partner dose 1 µM)",90.9
10,"C#Cc1cccc(Nc2ncnc3cc(OCCOC)c(OCCOC)cc23)c1 [erlotinib] + C[C@]1(c2nc3c(C(N)=O)cccc3[nH]2)CCCN1 [Veliparib] (first compound 0.8 µM, partner dose 1.4 µM)",103
11,"CC(=O)c1c(C)c2cnc(Nc3ccc(N4CCNCC4)cn3)nc2n(C2CCCC2)c1=O [palbociclib] + C#Cc1cccc(Nc2ncnc3cc(OCCOC)c(OCCOC)cc23)c1 [erlotinib] (first compound 0.04 µM, partner dose 0.8 µM)",107
12,"Nc1cccc2c1CN(C1CCC(=O)NC1=O)C2=O (centres undefined) [lenalidomide] + COc1cc(Nc2ncc(F)c(Nc3ccc4c(n3)NC(=O)C(C)(C)O4)n2)cc(OC)c1OC [Tamatinib] (first compound 1 µM, partner dose 0.4 µM)",169
13,"C[C@]1(c2nc3c(C(N)=O)cccc3[nH]2)CCCN1 [Veliparib] + CC(C)(C)c1cnc(CSc2cnc(NC(=O)C3CCNCC3)s2)o1 [SNS-032] (first compound 1.4 µM, partner dose 0.01 µM)",184
14,"Cc1nc(Nc2ncc(C(=O)Nc3c(C)cccc3Cl)s2)cc(N2CCN(CCO)CC2)n1 [dasatanib] + Nc1cccc2c1CN(C1CCC(=O)NC1=O)C2=O [lenalidomide] (first compound 0.004 µM, partner dose 1 µM)",78.3

# Laid out differently: results already given
row	Structure (SMILES)	cleaved PARP positive nuclei fraction [%]
8	C=CCNC1=C2C[C@@H](C)C[C@H](OC)[C@H](O)[C@@H](C)/C=C(\C)[C@H](OC(N)=O)[C@@H](OC)/C=C\C=C(/C)C(=O)NC(=CC1=O)C2=O [Tanespimycin] + Clc1ccc(Nc2nnc(Cc3ccncc3)c3ccccc23)cc1 [vatalanib] (first compound 0.002 µM, partner dose 2 µM)	356
9	COCC[n+]1c2c(n(Cc3cnccn3)c1C)C(=O)c1ccccc1C2=O + Nc1cccc2c1CN(C1CCC(=O)NC1=O)C2=O [lenalidomide] (first compound 0.0004 µM, partner dose 1 µM)	90.9
